The assay addresses Ten eleven translocation 1 (TET1) (human (endogenous in HTori3 and 8505C)) (UniProt Q8NFU7). Nature of the assay: co-IP; cell lysates (HTori3, 8505C) incubated with primary antibodies or IgG overnight at 4 °C, then 4 h at 4 °C with protein A/G-agarose beads; washed with RIPA buffer; western blotting.

Protein sequences, listed by entry. Tags and fused reporters are not part of them.
UniProt Q8NFU7: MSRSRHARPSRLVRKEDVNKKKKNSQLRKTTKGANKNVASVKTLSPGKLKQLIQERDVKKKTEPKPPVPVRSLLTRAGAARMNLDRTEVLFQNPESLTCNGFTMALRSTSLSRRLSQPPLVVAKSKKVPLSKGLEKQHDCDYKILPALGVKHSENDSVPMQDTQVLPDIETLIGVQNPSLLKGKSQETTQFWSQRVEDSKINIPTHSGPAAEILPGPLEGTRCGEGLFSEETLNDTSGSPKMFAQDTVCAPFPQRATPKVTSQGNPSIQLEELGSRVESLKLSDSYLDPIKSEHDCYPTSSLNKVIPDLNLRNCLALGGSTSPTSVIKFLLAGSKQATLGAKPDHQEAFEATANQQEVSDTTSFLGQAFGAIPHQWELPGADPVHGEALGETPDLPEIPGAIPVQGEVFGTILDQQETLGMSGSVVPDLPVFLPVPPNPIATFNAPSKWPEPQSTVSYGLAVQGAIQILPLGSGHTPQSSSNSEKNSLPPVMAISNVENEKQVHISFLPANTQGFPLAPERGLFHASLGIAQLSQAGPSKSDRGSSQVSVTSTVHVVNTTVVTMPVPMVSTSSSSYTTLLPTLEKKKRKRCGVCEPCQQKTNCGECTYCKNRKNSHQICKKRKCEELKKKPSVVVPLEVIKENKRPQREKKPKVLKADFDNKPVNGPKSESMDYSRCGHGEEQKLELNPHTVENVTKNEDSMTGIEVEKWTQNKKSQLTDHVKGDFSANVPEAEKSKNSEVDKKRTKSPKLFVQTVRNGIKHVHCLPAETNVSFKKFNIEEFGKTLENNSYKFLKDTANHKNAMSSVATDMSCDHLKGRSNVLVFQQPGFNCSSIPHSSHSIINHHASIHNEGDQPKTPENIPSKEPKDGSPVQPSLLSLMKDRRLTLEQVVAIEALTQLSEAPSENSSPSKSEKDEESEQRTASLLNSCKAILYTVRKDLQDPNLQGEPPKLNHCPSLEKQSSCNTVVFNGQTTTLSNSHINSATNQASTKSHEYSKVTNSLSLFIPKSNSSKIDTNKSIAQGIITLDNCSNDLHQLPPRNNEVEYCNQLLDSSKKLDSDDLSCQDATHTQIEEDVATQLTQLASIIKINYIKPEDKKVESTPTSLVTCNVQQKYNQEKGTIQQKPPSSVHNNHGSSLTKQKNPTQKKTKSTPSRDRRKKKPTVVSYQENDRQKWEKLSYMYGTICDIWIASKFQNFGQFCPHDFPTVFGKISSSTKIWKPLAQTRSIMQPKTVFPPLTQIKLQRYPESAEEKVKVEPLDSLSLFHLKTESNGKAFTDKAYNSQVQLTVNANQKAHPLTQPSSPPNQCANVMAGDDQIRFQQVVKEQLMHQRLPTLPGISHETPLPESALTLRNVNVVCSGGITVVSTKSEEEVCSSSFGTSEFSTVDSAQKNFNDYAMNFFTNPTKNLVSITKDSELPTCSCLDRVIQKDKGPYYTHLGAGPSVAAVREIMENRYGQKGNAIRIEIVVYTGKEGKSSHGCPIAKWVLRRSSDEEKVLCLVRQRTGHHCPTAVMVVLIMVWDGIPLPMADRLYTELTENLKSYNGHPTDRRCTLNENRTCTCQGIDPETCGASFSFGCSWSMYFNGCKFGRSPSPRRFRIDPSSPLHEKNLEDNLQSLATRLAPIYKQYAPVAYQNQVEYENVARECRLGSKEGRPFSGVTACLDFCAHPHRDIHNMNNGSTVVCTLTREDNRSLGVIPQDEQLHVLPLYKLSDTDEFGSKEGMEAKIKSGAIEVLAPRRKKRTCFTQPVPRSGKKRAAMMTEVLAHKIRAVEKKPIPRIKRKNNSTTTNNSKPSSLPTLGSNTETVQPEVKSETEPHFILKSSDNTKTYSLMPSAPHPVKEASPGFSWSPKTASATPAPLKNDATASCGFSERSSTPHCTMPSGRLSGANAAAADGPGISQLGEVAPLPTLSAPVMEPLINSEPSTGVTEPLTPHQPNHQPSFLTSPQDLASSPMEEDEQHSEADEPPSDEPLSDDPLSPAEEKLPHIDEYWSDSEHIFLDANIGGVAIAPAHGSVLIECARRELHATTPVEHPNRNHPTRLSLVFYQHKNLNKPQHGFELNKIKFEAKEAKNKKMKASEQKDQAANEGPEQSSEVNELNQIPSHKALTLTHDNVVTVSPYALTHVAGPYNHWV
UniProt Q92769: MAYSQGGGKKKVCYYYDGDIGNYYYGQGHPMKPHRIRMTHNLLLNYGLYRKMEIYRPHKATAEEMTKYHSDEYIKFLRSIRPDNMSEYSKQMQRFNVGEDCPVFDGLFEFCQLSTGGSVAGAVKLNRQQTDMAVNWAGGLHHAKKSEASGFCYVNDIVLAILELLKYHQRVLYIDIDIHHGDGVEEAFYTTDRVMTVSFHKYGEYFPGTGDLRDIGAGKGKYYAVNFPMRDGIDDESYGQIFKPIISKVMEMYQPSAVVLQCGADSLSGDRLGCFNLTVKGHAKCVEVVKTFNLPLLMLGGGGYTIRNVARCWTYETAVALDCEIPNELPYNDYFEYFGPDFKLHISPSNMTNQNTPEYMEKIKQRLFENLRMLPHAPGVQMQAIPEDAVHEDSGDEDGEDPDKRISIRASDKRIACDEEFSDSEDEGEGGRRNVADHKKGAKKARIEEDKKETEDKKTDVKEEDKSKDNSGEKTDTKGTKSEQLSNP
UniProt Q13547: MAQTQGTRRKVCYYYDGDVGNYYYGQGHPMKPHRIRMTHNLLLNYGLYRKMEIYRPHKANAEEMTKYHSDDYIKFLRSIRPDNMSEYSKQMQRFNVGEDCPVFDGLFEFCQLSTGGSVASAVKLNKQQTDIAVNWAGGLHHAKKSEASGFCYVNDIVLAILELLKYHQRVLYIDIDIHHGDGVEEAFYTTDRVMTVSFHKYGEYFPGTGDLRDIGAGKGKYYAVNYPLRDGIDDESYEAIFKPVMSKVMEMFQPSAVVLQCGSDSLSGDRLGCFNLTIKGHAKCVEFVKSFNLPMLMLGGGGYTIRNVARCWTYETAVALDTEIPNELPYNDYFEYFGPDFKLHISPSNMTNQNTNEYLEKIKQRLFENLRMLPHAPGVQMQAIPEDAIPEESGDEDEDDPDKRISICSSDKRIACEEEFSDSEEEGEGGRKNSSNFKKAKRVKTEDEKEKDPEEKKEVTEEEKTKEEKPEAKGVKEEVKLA

These are yes or no findings as the source states them, for the method shown. Binding seen in cells or lysates may run through a third protein. Some binding calls cover weakened binding; strength is not graded here.

Regarding HDAC2 (from UniProt Q92769 1-488), the binding result is “no binding”.

Regarding “histone deacetylase 1 (HDAC1) (from UniProt Q13547 1-482)”, the binding result is “binds”.

The record behind these values is article PMC12586522.
